According to patent US10793863:
No constants are given. Whether binding was seen depends on the method and setting. Binding seen in cells or lysates may run through a third protein. Some entries that bind do so weakly or less than the wild type. Where a sequence is shown, tags or fusion partners need not be part of it.

Assays:
[1] = target: T1, CfbD from Methanosarcina acetivorans C2A, untagged (Methanosarcina acetivorans C2A) (UniProt Q8TJZ8); experiment: purified complex (Ni-IMAC co-purification) used in enzyme assays
T1 sequence: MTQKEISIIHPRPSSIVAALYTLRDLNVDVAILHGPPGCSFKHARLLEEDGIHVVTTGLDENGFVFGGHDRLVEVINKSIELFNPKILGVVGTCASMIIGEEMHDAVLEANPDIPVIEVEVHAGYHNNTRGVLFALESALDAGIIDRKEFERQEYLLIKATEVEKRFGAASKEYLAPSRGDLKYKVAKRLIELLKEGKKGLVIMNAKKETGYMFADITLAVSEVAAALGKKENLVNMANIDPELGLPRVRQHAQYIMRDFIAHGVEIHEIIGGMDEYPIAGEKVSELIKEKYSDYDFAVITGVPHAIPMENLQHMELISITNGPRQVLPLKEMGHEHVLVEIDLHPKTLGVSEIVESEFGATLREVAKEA

[2] = target: T1, CfbD from Methanosarcina acetivorans C2A, untagged (Methanosarcina acetivorans C2A); experiment: co-expression in E. coli and co-purification by Ni-IMAC through the His6-tag on CfbC

B1: CfbC from Methanosarcina acetivorans C2A with cleavable N-terminal His6-tag (enzyme, not shown: small tags and cut ends)
chain: MKKQKIVAIYGKGGIGKSSTASNVAAACAEAGKKVMIIGCDPKSDSSITLLRGKRIPTILDLLREGVDVQEKDVVFEGYAGVKCVEAGGPEPGIGCAGRGIIVAIQKLKSISGDLLKEQDLIIYDVPGDIVCGGFVAPVRKGYVNEAYVLTSGEYMPLYAANNICKGLSKIGMPLSGVICNSRNASREEEIVRKFSEEIGSQLMAFIPKRQIVQDCEREGYSVMEKAPDSDIAEVYRQLGKSILTNEKKVMASHLSDERLREMTK
What does the source list for B1?
binding [1]: binds; binding [2]: binds
